## Primary screen of a compound library

From ChEMBL document CHEMBL3988442, “University of Dundee, Small-Polar-MMV Screening Library” (2021).

A: 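Assay of Toxoplasma gondii numbers, read through their beta-galactosidase reporter with a colour substrate. Compounds at 10 µM. Higher reads as fewer parasites (inferred from which compounds were picked for retests). Of about 67,000 compounds tested this way, about 260 (0.38%) reached 50% or more in at least one test.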
B: 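Whole-parasite assay of Trypanosoma brucei over 72 hours; the read-out is not stated. Compounds at 30 µM. Direction is inferred from retests: higher values go with stronger inhibition. Values scatter widely below zero; nearly all retest evidence comes from the higher of the two concentrations used. Of about 64,000 compounds tested this way, about 940 (1.5%) reached 50% or more in at least one test.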

The filed quantity is “Percent Effect” (%).
The record does not define 0% and 100%; most values in the screen are far below 50% and negative numbers occur (in some assays of this library far below -100).
The compounds are a random part of those screened.
A dash means the value is not listed here; it may have been measured.

| SMILES | A | B |
|---|---|---|
| `Cc1nc(CNC(C)c2ccc(OCC(=O)NC3CC3)cc2)cs1` (stereo unspecified) | -1.519 | 8.851 |
| `NS(=O)(=O)c1cnn(CC(=O)Nc2c(Cl)cccc2Cl)c1` | 0.6977 | 30.68 |
| `CN(Cc1nncn1C)C(=O)c1cc(COc2ccccc2F)[nH]n1` | 5.829 | -95.09 |
| `Cc1nc(-c2cc(C(=O)N3CCCN(C)CC3)c3ccccn23)cn1C.O=C(O)C(F)(F)F` | -9.564 | -34.7 |
| `Cc1cc(C)n(C2CCN(Cc3c(-c4cc(C)on4)nn(C)c3Cl)C2)n1` (stereo unspecified) | 6.672 | -16.52 |
| `Cc1ccc(NC2CCN(C(=O)c3cc(C(N)=O)cs3)CC2)nn1` | -0.4902 | -2.024 |
| `Cc1cccc2c(CCNC(=O)NCC[S+](C)[O-])c[nH]c12` (stereo unspecified) | 2.254 | -22.32 |
| `[H][C@@]12CN(S(=O)(=O)c3ccccc3)C[C@]1([H])OCC(=O)N2Cc1ccccc1` | 12.79 | -16.1 |
| `O=C(O)C(F)(F)F.c1cn2c(n1)CN(Cc1ccsc1)CC(Cn1cncn1)C2` (stereo unspecified) | -0.7647 | -5.39 |
| `[H][C@@]12CCN(C(=O)c3ccc[nH]3)[C@@]1([H])CC(=O)N2CCOC` | 5.251 | -2.714 |
| `CC1CN(CC(=O)N2CCCC2)CCN1c1ccc2nncn2n1` (stereo unspecified) | 0.6734 | 22.11 |
| `COc1ccccc1C(=O)Nc1ccc(OC2CCN(C)CC2)cc1` | 4.704 | -32.85 |
| `COCc1nc(C(=O)NS(=O)(=O)c2cc(Br)ccc2C)cs1` | 1.33 | 0.285 |
| `Cc1nc(CN2CCCC2Cn2cncn2)nc2ccccc12` (stereo unspecified) | -0.3474 | 11.42 |
| `CC(C)Nc1cccc(CC2CCN(S(C)(=O)=O)CC2)n1` | 1.311 | -6.63 |
| `Cc1nc(N2C[C@@H](CN3CCCN(C)CC3)[C@@H](CO)C2)c2ccsc2n1` | -10 | -18.94 |
| `CC(C)c1noc(CN(Cc2cccs2)C2CC2)n1` | 16.89 | -13.45 |
| `CC(C)(CNC(=O)NCCOc1cccc(F)c1)C(N)=O` | -5.505 | -14 |
| `O=C(NC1CC1)c1cc(Sc2ncccn2)ccn1` | 9.41 | -9.134 |
| `COCCN(CCC#N)S(=O)(=O)c1cc(F)ccc1F` | -9.873 | 3.889 |
| `O=C(Nc1nncs1)N1CCCN(C2CCCC2)CC1` | -7.427 | -25.86 |
| `Cc1cccnc1C(Cc1ccsc1)NCc1cnc(N(C)C)nc1` (stereo unspecified) | -4.622 | 2.602 |
| `O=C(NCCN1CCC(c2cccs2)CC1)c1ccccc1C(F)(F)F` | 0 | -61.06 |
| `CCn1c(NCc2ccc(OC)cc2)nc2c(C)nn(C)c2c1=O` | 69.56 | -12.39 |
| `CC(=O)Nc1ncc(S(=O)(=O)N2CCN(C3CCCCC3)CC2)s1` | -4.699 | -24.52 |
| `Cc1cnc(N2Cc3cnn(Cc4ccc(F)cc4)c3C2)nc1N(C)C` | 0.1655 | 21.39 |
| `CNC(=O)C1CN(C(=O)c2cccnc2)CCN(S(C)(=O)=O)C1` (stereo unspecified) | 16.09 | -14.68 |
| `CC(NC(=O)NCCCN1CCCC1=O)c1nncn1C` (stereo unspecified) | 85.8 | -12.34 |
| `CCn1c(-c2ccccc2)nn(CC(=O)NCCc2ccc(C)s2)c1=O` | -2.622 | -18 |
| `CCOc1ccc(-c2nc(CN(C)Cc3c(C)noc3C)cs2)cc1` | 2.717 | -14.09 |
| `[H][C@@]12CCC(=O)N(CC3CCNCC3)[C@]1([H])CCN(Cc1ncc[nH]1)C2` | -7.344 | -8.913 |
| `[H][C@@]12CCN(Cc3ccoc3)C[C@]1([H])[C@@H](CNC(=O)N(C)C)OC2` | 4.167 | -41.71 |
| `CC(C)=CCN1Cc2nnc(C3CCOCC3)n2C(Cc2c[nH]cn2)C1` (stereo unspecified) | 11.78 | -23.98 |
| `c1cc(-c2c[nH]c([C@@H]3COCCN3C3CCCCC3)n2)ccn1` | 3.585 | -14 |
| `COC(=O)C1CCN(C(=O)CN2CCN(c3cccc(C)c3)CC2)CC1` | -2.819 | -11.28 |
| `Cc1ccoc1C(=O)N1CCn2cc(CN3CCCC3)nc2C1` | 0.1428 | -729 |
| `CC(C)NC(=O)C1CN(Cc2ccc(F)cc2)CC12CCOCC2.O=C(O)C(F)(F)F` (stereo unspecified) | -14.48 | -12.09 |
| `Cc1cc(C(=O)NCC(F)(F)F)c2c(C3CCNCC3)noc2n1` | 23.28 | - |
| `[H][C@]12CC[C@]([H])(CN(CC(=O)N(C)C)C1)N(C(=O)c1cccnc1SC)C2` | -19.38 | -33.82 |
| `CN1CCN(C(C)(C)CNC(=O)C2CCCN2S(C)(=O)=O)CC1` (stereo unspecified) | 8.862 | -36.06 |
| `COc1ccc(-c2noc(CN3CCN(c4cnccn4)CC3)n2)cc1` | 12.56 | -19.84 |
| `O=S(=O)(c1ccccc1)N1CCCC1c1cc[nH]n1` (stereo unspecified) | -10.66 | -6.828 |

The first 3 entries again:

- Cc1nc(CNC(C)c2ccc(OCC(=O)NC3CC3)cc2)cs1 (stereo unspecified) : A: -1.519%; B: 8.851%
- NS(=O)(=O)c1cnn(CC(=O)Nc2c(Cl)cccc2Cl)c1 : A: 0.6977%; B: 30.68%
- CN(Cc1nncn1C)C(=O)c1cc(COc2ccccc2F)[nH]n1 : A: 5.829%; B: -95.09%